PMC11897192
Results are given in words; binding and its absence hold for the method and conditions named. Binding seen in cells or lysates may run through a third protein. Some binding calls cover weakened binding; strength is not graded here. Tags and fused reporters may be left off the sequences shown.

T1: Flag-ZBTB20 (UniProt Q8K0L9)
T1 sequence: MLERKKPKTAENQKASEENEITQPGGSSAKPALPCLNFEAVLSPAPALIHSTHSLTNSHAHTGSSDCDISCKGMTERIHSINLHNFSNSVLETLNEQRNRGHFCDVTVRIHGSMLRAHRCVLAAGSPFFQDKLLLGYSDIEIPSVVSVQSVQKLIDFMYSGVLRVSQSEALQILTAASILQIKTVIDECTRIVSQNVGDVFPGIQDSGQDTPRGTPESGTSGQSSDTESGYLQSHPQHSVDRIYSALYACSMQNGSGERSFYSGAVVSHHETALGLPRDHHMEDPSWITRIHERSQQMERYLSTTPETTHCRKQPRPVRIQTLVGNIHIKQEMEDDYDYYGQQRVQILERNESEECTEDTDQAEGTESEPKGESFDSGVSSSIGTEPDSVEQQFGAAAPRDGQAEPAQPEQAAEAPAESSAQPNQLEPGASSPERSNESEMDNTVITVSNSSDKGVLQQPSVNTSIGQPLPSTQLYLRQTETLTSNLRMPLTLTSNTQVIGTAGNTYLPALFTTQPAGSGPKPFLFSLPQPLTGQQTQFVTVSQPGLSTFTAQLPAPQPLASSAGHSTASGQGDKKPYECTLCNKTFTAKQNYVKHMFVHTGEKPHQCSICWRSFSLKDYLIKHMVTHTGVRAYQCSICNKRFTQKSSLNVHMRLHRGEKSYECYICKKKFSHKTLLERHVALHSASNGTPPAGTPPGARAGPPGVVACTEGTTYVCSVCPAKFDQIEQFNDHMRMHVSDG

T2: Myc-LATS1 (UniProt Q8BYR2)
T2 sequence: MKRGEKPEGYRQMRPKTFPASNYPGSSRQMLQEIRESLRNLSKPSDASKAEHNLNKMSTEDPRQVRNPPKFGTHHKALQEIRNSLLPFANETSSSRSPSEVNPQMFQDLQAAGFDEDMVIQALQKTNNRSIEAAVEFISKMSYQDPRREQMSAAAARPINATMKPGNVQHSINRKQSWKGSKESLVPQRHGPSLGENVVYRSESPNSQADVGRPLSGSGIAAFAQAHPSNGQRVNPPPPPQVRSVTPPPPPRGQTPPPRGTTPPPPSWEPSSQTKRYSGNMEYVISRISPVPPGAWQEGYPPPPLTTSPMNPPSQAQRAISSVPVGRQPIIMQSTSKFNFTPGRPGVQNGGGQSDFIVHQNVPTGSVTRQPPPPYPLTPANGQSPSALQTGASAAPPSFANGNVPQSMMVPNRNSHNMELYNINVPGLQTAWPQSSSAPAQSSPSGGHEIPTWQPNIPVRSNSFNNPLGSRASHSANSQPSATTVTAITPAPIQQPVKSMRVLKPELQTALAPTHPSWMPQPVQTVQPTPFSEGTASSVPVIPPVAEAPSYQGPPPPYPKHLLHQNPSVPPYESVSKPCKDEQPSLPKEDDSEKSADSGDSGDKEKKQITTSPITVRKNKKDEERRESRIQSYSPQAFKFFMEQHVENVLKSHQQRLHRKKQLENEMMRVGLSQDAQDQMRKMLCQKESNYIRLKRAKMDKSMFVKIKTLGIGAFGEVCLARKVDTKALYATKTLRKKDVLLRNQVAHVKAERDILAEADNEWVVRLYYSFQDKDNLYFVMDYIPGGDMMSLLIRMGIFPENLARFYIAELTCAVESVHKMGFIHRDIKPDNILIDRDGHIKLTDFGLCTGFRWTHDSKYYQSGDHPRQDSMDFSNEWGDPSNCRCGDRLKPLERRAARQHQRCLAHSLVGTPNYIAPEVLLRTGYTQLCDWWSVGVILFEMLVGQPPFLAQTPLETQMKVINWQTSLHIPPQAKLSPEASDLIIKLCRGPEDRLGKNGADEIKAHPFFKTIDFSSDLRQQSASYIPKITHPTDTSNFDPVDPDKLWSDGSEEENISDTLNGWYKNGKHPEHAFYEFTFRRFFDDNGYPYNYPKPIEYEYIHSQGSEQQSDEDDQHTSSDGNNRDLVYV

B1: Myc-LATS1 (protein, UniProt Q8BYR2 1-1129)
chain: T2 sequence
B2: Flag-ZBTB20 (protein, UniProt Q8K0L9 1-741)
chain: T1 sequence

What was measured:
Flag-ZBTB20 [1] = target: T1, Flag-ZBTB20; assay: co-IP; tag-fused proteins Flag-ZBTB20 and Myc-LATS1; cells stimulated with IL-1β
Flag-ZBTB20 [2] = target: T1, Flag-ZBTB20; assay: co-IP; tag-fused proteins Flag-ZBTB20 and Myc-LATS1, reciprocal; without IL-1β; cells not given
Myc-LATS1 = target: T2, Myc-LATS1; assay: as above

Row | Binder | binding (Flag-ZBTB20 [1]) | binding (Flag-ZBTB20 [2]) | binding (Myc-LATS1)
1 | B1 | no binding (condition: cells treated with IL-1β) | binds | 
2 | B2 |  |  | binds
